Experimental findings from publication PMC5040251, “The Structure of Treponema pallidum Tp0751 (Pallilysin) Reveals a Non-canonical Lipocalin Fold That Mediates Adhesion to Extracellular Matrix Components and Interactions with Host Cells” (PLoS Pathogens, 2016) are described below.

Holding throughout (experiment): ELISA; initial binding screen, single point: host protein immobilised in plate wells, His6-tagged synthetic peptide in solution; absorbance at 600 nm, three wells, two independent experiments; done as in refs 21, 22; both purified
Experiment [1] deals with human collagen type IV (human).
The target in experiment [2] is fibronectin isolated from human plasma (human).
Experiment [3] has as its target plasminogen-depleted human fibrinogen (human).

Results are given in words; binding and its absence hold for the method and conditions named. Binding calls can cover weak binding; strength is not graded here.

B1: Tp0751 synthetic peptide p4 (peptide)
peptide: GGAAQTHTQPPVQTAMRIALWNRA
notes: Tp0751 (pallilysin), Treponema pallidum subsp. pallidum; its central four residues PVQT (98-101) are printed; also called peptide 4; source: synthetic peptide; not shown: His6, N-terminal, kept
Take B1: the binding entry in experiment [1], in experiment [2] and in experiment [3] was “binds” each time.

B2: Tp0751 synthetic peptide p11 (peptide)
peptide: SIRRRLEVTFESHEVIHVRAVEDV
notes: Tp0751 (pallilysin), Treponema pallidum subsp. pallidum; shares its first 10 residues (with the arginine triplet) with p10; source: synthetic peptide; not shown: His6, N-terminal, kept
B2: the binding result in experiment [1], in experiment [2] and in experiment [3] was “binds” throughout.

B3: Tp0751 synthetic peptide p6 (peptide)
peptide: QGALQHLLAGLWIQTEISPNSGDI
notes: Tp0751 (pallilysin), Treponema pallidum subsp. pallidum; its central four residues LWIQ (126-129) are printed; also called peptide 6; source: synthetic peptide; not shown: His6, N-terminal, kept
As for B3, the binding entry in experiment [1], in experiment [2] and in experiment [3] was “binds” in each case.
For the molecule FFDREHAEITFSRASVQEIFLVDS (peptide, UniProt O83732 144-167) [Tp0751 synthetic peptide p8], the binding entry in experiment [1], in experiment [2] and in experiment [3] was “no binding” throughout.

B4: Tp0751 synthetic peptide p10 (peptide)
peptide: RKTVSFLTRNTAISSIRRRLEVTF
notes: Tp0751 (pallilysin), Treponema pallidum subsp. pallidum; Its composition equals that of the printed scrambled peptide p10scr2; also called peptide 10; source: synthetic peptide; not shown: His6, N-terminal, kept
B4: the binding result in experiment [1], in experiment [2] and in experiment [3] was “binds” throughout.
